{"source": "patent US6747006B2", "about": "“Use of GLP-1 or analogs in treatment of myocardial infarction” (Eli Lilly and Company, priority 1996, dated 2004)", "origin": "cited, not measured here", "key": {"[1]": {"test_system": "insulin-dependent diabetics", "conditions": "physiological concentrations"}, "[2]": {"test_system": "non-insulin dependent diabetics"}}, "note": "At least one peptide structure holds a part that was inferred or is arguable (an end, a ring closure or a residue).", "data": [{"smiles": "CC[C@H](C)[C@H](NC(=O)[C@H](Cc1ccccc1)NC(=O)[C@H](CCC(=O)O)NC(=O)[C@H](CCCCN)NC(=O)[C@H](C)NC(=O)[C@H](C)NC(=O)[C@H](CCC(N)=O)NC(=O)CNC(=O)[C@H](CCC(=O)O)NC(=O)[C@H](CC(C)C)NC(=O)[C@H](Cc1ccc(O)cc1)NC(=O)[C@H](CO)NC(=O)[C@H](CO)NC(=O)[C@@H](NC(=O)[C@H](CC(=O)O)NC(=O)[C@H](CO)NC(=O)[C@@H](NC(=O)[C@H](Cc1ccccc1)NC(=O)[C@@H](NC(=O)CNC(=O)[C@H](CCC(=O)O)NC(=O)[C@H](C)NC(=O)[C@@H](N)Cc1c[nH]cn1)[C@@H](C)O)[C@@H](C)O)C(C)C)C(=O)N[C@@H](C)C(=O)N[C@@H](Cc1c[nH]c2ccccc12)C(=O)N[C@@H](CC(C)C)C(=O)N[C@H](C(=O)N[C@@H](CCCCN)C(=O)NCC(=O)N[C@@H](CCCNC(=N)N)C(N)=O)C(C)C", "note": "[GLP-1(7-36) amide]", "values": [{"measurement": "antidiabetogenic effect", "setting": "[1]", "value": "pronounced antidiabetogenic effect"}, {"measurement": "effects on insulin release, glucagon secretion, gastric emptying, glucose utilization", "setting": "[2]", "value": "stimulates insulin release, lowers glucagon secretion, inhibits gastric emptying and enhances glucose utilization"}]}]}
